Results deposited as PubChem BioAssay AID1224826 (NIAID, 2016)

Test: 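Knock-downs that raise or lower Tnf reporter signal after endotoxin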 (primary screen)
Cell system: RAW264.7 G9 macrophages from mouse bearing reporters for p65 (GFP) and the Tnf promoter (mCherry)
Reagents: siRNA pool against mouse genes, 100 nM
Duration: 16 h of LPS stimulation, after 2 days of siRNA transfection
Challenge: bacterial lipopolysaccharide (Salmonella minnesota R595), 10 ng/ml
Detection: 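Imaged Tnf reporter mCherry in nuclei, minus background, normalised per plate to the median and expressed as robust z-scores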
Reading the numbers: Tnf reporter robust z-score: higher = stronger Tnf promoter reporter signal after LPS
Call rule: 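Called active when robust z-score is at most -1.3, matching the median of the Tlr4 knock-down control, or over 3; control wells and wells with under 50 cells never active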
Calls: active = Tnf reporter clearly lowered or raised; inactive = no clear change in Tnf reporter
In all, the deposit lists about 17,000 reagents; this is a random part of them. Of all reagents, about 1,110 (6.6%) were called active. 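Active means lowered or raised reporter signal; replicate intensities are raw and not normalised per plate.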 Not all columns of the deposit are shown. No sequences are given here.

gene symbol | PubChem SID | Tnf reporter robust z-score | fewer than 50 cells in well | activity call
Kif12 | SID315467610 | -0.27 | enough cells in well | inactive
Napb | SID315468100 | -0.97 | enough cells in well | inactive
Or1e33 | SID315480618 | 0.99 | enough cells in well | inactive
Or9g4 | SID315480230 | 0.59 | enough cells in well | inactive
Bmp1 | SID315465646 | 1.23 | enough cells in well | inactive
Bnip1 | SID315478352 | -0.6 | enough cells in well | inactive
Tbp | SID315469588 | -0.64 | enough cells in well | inactive
Ccm2 | SID315478006 | -1.05 | enough cells in well | inactive
Cacna2d2 | SID315471691 | -1.27 | enough cells in well | inactive
Cnn2 | SID315466033 | 1.98 | enough cells in well | inactive
Scp2 | SID315469125 | 0.84 | enough cells in well | inactive
Tcim | SID315473711 | 0.21 | enough cells in well | inactive

Reformatted: 3 of the entries above
gene symbol,PubChem SID,Tnf reporter robust z-score,fewer than 50 cells in well,activity call
Bmp1,SID315465646,1.23,enough cells in well,inactive
Bnip1,SID315478352,-0.6,enough cells in well,inactive
Tbp,SID315469588,-0.64,enough cells in well,inactive

The listing continues:
gene symbol | PubChem SID | Tnf reporter robust z-score | fewer than 50 cells in well | activity call
Ercc2 | SID315466551 | 0.1 | enough cells in well | inactive
S1pr5 | SID315476066 | -1.54 | enough cells in well | active
Ptgfrn | SID315468777 | 0.02 | enough cells in well | inactive
Stoml1 | SID315473724 | -0.11 | enough cells in well | inactive
Dhdh | SID315474310 | – | fewer than 50 cells per well; well left out of calls | inactive
Rictor | SID315475611 | – | fewer than 50 cells per well; well left out of calls | inactive
Rabgap1 | SID315478606 | 1.65 | enough cells in well | inactive
Ptprj | SID315468814 | 0.45 | enough cells in well | inactive
Gata1 | SID315466836 | -0.8 | enough cells in well | inactive
Scart2 | SID315479750 | -1.25 | enough cells in well | inactive
Ppfia4 | SID315473551 | 0.32 | enough cells in well | inactive
Cdc42 | SID315465890 | 0.72 | enough cells in well | inactive
